These are yes or no findings as the source states them, for the method shown. Binding seen in cells or lysates may run through a third protein. Sequences can lack the tags named with a protein.
Molecular target: GST tagged TAK1 truncated fragment lacking the kinase domain (human (from the RefSeq entry))
Test: pull-down; GST-tagged and Flag- or HA-tagged proteins co-expressed in COS-7 cells; lysates (20 mM Tris pH 7.4, 150 mM NaCl, 0.5% Triton X-100) incubated with glutathione sepharose beads at 4 °C; washed three times with 250 mM NaCl, 0.5% Triton X-100; Western blot

B1: Flag-POPX2 (enzyme, UniProt P49593 1-454)
chain: MSSGAPQKSSPMASGAEETPGFLDTLLQDFPALLNPEDPLPWKAPGTVLSQEEVEGELAELAMGFLGSRKAPPPLAAALAHEAVSQLLQTDLSEFRKLPREEEEEEEDDDEEEKAPVTLLDAQSLAQSFFNRLWEVAGQWQKQVPLAARASQRQWLVSIHAIRNTRRKMEDRHVSLPSFNQLFGLSDPVNRAYFAVFDGHGGVDAARYAAVHVHTNAARQPELPTDPEGALREAFRRTDQMFLRKAKRERLQSGTTGVCALIAGATLHVAWLGDSQVILVQQGQVVKLMEPHRPERQDEKARIEALGGFVSHMDCWRVNGTLAVSRAIGDVFQKPYVSGEADAASRALTGSEDYLLLACDGFFDVVPHQEVVGLVQSHLTRQQGSGLRVAEELVAAARERGSHDNITVMVVFLRDPQELLEGGNQGEGDPQAEGRRQDLPSSLPEPETQAPPRS
B1 was tested, and the binding was “no binding”.

Reference: paper PMC5636987
